Measurements published in US20200308287A1.
No constants are given. Whether binding was seen depends on the method and setting. Some results given as binding are weak or reduced against the parent protein; the word gives no strength.

Biological target: Fzd1 extracellular domain (ECD) (UniProt Q9UP38)
Assay: Octet interaction assay

binding: binds
B1: R2M3 IgG (antibody, V domains shown, not shown: small tags and cut ends)
VH: EVQLVQSGAEVKKPGASVKVSCKASGYTFTSYGISWVRQAPGQGLEWMGWISAYNGNTNYAQKLQGRVTMTTDTSTSTAYMELRSLRSDDTAVYYCASSKEKATYYYGMDVWGQGTTVTVSS
VL: QAVVLQEPSLSVSPGGTVTLTCGLSSGSVSTNYYPSWYQQTPGQAPRTLIYYTNTRSSDVPERFSGSIVGNKAALTITGAQPDDESVYFCLLYLGRGIWVFGGGTKLTVLG
